Read-outs that look alike come from different tables or passages of the source. The match of structure and compound is tentative.
Key:
[1] = target: ASGPR (Homo sapiens, UniProt P07306); experiment: Affinity to ASGPR by surface plasmon resonance (SPR)
[2] = target: IgG; experiment: Affinity to IgG by surface plasmon resonance (SPR); settings: read-out: IgG SPR Binding Kd; Biacore 8K, 25° C., IgG on CM5 chip
Procedure: Immobilization levels ranging from 1000-1300 resonance units (RU) are obtained. The running buffer is 10 mM HEPES, pH 7.4, 400 mM NaCl, 0.005% P20, […]. The initial concentration of compounds varies from 500 nM to 100 nM depending on Kd values.

Protein sequences, listed by entry. Tags and fused reporters are not part of them.
UniProt P07306, whole entry: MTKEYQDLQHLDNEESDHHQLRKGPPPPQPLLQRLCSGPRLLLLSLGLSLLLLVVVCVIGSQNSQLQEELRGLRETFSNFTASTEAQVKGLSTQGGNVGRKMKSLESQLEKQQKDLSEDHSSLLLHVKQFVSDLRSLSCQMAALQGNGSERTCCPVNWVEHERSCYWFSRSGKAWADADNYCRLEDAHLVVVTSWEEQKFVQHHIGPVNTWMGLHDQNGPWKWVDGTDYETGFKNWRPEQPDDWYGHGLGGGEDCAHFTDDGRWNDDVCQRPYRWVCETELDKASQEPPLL
UniProt P07307, whole entry partner: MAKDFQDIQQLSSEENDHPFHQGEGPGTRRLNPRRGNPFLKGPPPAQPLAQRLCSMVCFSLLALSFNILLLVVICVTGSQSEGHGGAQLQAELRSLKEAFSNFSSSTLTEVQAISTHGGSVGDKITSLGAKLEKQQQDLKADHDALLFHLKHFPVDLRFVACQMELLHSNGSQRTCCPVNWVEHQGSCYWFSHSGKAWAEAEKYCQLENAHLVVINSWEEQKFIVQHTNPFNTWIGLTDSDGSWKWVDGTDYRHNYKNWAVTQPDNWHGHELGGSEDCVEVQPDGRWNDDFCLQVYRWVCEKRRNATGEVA

[3] = target: ASGPR receptor on the cell surface (HepG2 cells) (Homo sapiens, UniProt P07306); experiment: Ternary complex formation assay (flow cytometry, HepG2); assay type: cell-based; settings: read-out: Ternary Complex EC50
[4] = system: HepG2 cells; experiment: Cellular uptake assay of AF488-labeled antibody (HepG2); assay type: cell-based; settings: read-out: Uptake Assay EC50, 100 nM AF488-labeled antibody, 37° C. for 6 hours, class symbols

Row | SMILES | Kd ([1]; read-out: ASGPR SPR Binding: KD, Biacore 8K, 25° C., class symbols) | Kd [2] | EC50 [3] | EC50 [4] | Kd ([1]; read-out: ASGPR SPR Binding Kd)
1 | C=CCO[C@H]1O[C@H](CO)[C@H](O)[C@H](O)[C@H]1Nc1cncc(C(F)(F)F)n1 | < 1000 nM | – | – | – | –
2 | CC(C)C[C@@H]1NC(=O)[C@H](Cc2cnc[nH]2)NC(=O)[C@H](Cc2c[nH]c3ccccc23)NC(=O)[C@H](C)NC(=O)[C@@H](NC(=O)[C@H](CC(=O)O)NC(=O)CCOCCOCCOCCOCCNC(=O)CCCc2cn(CCCCCC(=O)NC(COCCC(=O)NCCOCCOCCOCCOC[C@@]34CO[C@@H](O3)[C@H](Nc3nc(Cl)ns3)[C@@H](O)[C@H]4O)COCCC(=O)NCCOCCOCCOCCOC[C@@]34CO[C@@H](O3)[C@H](Nc3nc(Cl)ns3)[C@@H](O)[C@H]4O)nn2)CSSC[C@@H](C(=O)N[C@H](C(N)=O)[C@@H](C)O)NC(=O)[C@H](Cc2c[nH]c3ccccc23)NC(=O)[C@H](C(C)C)NC(=O)[C@H](CC(C)C)NC(=O)[C@H](CCC(=O)O)NC(=O)CNC1=O | – | < 100 nM | < 100 nM | < 100 nM | < 100 nM

Reference: patent US12091402B2 (Avilar Therapeutics, Inc., priority 2021, dated 2024)
